No constants are given. Whether binding was seen depends on the method and setting. Binding seen in cells or lysates may run through a third protein. Some binding calls cover weakened binding; strength is not graded here.
T1: serine racemase (mouse (endogenous in primary cortical cultures from C57BL/6 mice)) (UniProt Q9QZX7)
T1 sequence: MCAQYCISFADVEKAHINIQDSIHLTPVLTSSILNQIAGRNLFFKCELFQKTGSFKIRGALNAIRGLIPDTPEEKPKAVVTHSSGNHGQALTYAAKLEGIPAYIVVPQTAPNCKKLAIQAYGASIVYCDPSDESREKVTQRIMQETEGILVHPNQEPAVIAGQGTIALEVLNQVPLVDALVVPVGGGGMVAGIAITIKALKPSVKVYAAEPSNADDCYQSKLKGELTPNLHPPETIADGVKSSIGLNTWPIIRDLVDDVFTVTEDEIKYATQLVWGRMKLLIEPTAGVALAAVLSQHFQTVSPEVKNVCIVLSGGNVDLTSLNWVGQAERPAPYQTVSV

The chains behind the UniProt entries cited, without tags or fusion partners. Residues count along the entry.
UniProt Q01097, residues 27-1482: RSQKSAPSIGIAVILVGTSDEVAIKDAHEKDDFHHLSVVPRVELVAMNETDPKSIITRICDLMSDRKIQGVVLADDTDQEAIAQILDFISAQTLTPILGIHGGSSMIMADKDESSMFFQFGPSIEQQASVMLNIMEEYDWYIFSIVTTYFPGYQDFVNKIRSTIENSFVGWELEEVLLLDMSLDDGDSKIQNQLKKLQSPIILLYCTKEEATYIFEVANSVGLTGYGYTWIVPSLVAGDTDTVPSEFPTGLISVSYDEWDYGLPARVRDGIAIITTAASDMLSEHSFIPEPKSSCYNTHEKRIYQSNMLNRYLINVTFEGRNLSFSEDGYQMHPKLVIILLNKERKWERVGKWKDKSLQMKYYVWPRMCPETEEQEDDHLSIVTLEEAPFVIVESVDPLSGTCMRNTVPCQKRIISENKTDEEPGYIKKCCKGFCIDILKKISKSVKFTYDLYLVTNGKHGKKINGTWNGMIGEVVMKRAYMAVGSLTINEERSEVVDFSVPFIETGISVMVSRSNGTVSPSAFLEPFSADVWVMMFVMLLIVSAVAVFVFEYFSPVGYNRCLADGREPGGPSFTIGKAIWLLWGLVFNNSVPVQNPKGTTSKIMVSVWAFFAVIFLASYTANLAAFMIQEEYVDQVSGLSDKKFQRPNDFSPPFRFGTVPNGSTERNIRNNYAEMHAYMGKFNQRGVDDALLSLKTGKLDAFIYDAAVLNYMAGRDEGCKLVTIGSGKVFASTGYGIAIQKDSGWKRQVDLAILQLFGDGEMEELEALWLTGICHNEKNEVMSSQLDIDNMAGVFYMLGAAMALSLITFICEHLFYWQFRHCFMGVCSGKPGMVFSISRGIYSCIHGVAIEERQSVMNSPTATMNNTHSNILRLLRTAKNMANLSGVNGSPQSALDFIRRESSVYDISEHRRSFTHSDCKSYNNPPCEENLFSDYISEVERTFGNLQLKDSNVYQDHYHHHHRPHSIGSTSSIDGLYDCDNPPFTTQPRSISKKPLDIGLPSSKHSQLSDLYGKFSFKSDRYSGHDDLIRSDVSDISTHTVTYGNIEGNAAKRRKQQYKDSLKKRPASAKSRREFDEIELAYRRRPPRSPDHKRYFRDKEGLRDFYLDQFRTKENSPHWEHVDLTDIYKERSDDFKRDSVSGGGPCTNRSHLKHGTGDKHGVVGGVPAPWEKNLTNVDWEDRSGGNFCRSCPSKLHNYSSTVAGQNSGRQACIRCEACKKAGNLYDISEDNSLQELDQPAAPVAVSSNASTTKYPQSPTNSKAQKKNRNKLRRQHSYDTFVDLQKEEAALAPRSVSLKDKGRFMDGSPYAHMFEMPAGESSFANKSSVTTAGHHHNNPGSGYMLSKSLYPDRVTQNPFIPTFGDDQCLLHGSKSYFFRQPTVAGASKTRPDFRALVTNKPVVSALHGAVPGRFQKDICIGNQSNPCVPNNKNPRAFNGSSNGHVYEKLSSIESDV


Columns and labels:
[1] = molecular target: T1, serine racemase (mouse (endogenous in primary cortical cultures from C57BL/6 mice)); assay: co-IP; 250 μg cortical neuronal lysate (lysis buffer 150 mM NaCl, 1 mM EDTA, 100 mM Tris-HCl, 1% Triton X-100, 1% sodium deoxycholate, 1% SDS, pH 7.4) with 2 μg α-SR, α-NR1 or α-PSD-95 antibody or normal IgG, 4°C, protein A or G agarose, Western blot; also from cultures treated 24 h with vehicle, D-serine (50 μM), D-serine + AP5, D-serine + 7-CK, glycine + lithium
[2] = molecular target: NR1 subunit of NMDARs (mouse (endogenous in primary cortical cultures from C57BL/6 mice)) (UniProt P35438); assay: as above

| Molecule | binding [1] | binding [2] |
| --- | --- | --- |
| NR2A (from UniProt P35436 23-1464) (receptor) | binds |  |
| NR2B (from UniProt Q01097 27-1482) (receptor) | binds |  |
| serine racemase (enzyme, UniProt Q9QZX7 1-339) MCAQYCISFADVEKAHINIQDSIHLTPVLTSSILNQIAGRNLFFKCELFQKTGSFKIRGALNAIRGLIPDTPEEKPKAVVTHSSGNHGQALTYAAKLEGIPAYIVVPQTAPNCKKLAIQAYGASIVYCDPSDESREKVTQRIMQETEGILVHPNQEPAVIAGQGTIALEVLNQVPLVDALVVPVGGGGMVAGIAITIKALKPSVKVYAAEPSNADDCYQSKLKGELTPNLHPPETIADGVKSSIGLNTWPIIRDLVDDVFTVTEDEIKYATQLVWGRMKLLIEPTAGVALAAVLSQHFQTVSPEVKNVCIVLSGGNVDLTSLNWVGQAERPAPYQTVSV |  | binds |

Source: publication PMC4766304
